# Data as given in PubChem BioAssay AID743454 (Peter MacCallum Cancer Centre, 2014)
# Test: 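Knock-downs lowering viability or raising caspase 3/7 activity in vorinostat-treated resistant cells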 (primary screen)
# System: human HCT116-VR colon cancer cells, selected for vorinostat resistance
# Reagents: siRNA pool against human genes, 40 nM siRNA pool
# Duration: vorinostat for 24 h, read-out about 72 h after transfection
# Treatment: vorinostat at 2.5 µM final
# Read-out: 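Cell viability by CellTiter-Fluor and caspase 3/7 activity by luminescence, each scaled to mock wells per plate, duplicates averaged, then robust z-scored over all plates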
# Scale: viability robust z-score: higher = more viable cells than screen typical; caspase robust z-score: higher = more caspase 3/7 activity than screen typical
# Call rule: 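a knock-down is a hit when classed RV1 or RV2 for lowered viability, or CA1 or CA2 for caspase activation; those lethal without drug were dropped; hits were retested singly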
# The whole screen tested about 18,000 reagents; below is a random part of them. Over the whole deposit, 450 (2.5%) are marked active. 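Single biological run; no consistent viability z cut-off exists, so the class columns, not z-scores, define the calls.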
Target gene,viability hit class,caspase hit class,viability robust z-score,caspase robust z-score,Outcome
COL19A1,no change,no change,-0.06,-0.6,inactive
KHDC3L,no change,no change,0.65,-0.09,inactive
ZNF211,no change,no change,0.72,0.38,inactive
DRD2,no change,no change,-2.24,-0.75,inactive
SLC7A2,no change,no change,-0.58,-0.74,inactive
CXCR4,no change,no change,0.38,0.38,inactive
PTCH2,no change,no change,-1.16,-0.55,inactive
CUL7,no change,no change,-0.72,-0.92,inactive
BRS3,no change,no change,-1.12,-0.68,inactive
CUX2,no change,no change,-2.64,-1.09,inactive
AMDHD1,no change,no change,-0.46,-0.69,inactive
SNTN,no change,no change,-0.02,-0.16,inactive
ELMO3,no change,no change,-0.4,-0.82,inactive
GABRB3,no change,no change,0.28,5.09,inactive
PRR23E,no change,no change,0.63,-0.4,inactive
LPA,no change,no change,0.05,-0.04,inactive
KRTAP8-1,no change,no change,1.22,-0.02,inactive
PPP1R26,no change,no change,-1,0.74,inactive
NT5C1A,no change,no change,0.46,-0.12,inactive
ROBO2,no change,no change,0.22,1.66,inactive
ETNK1,no change,no change,0.9,0.3,inactive
NEDD1,no change,no change,-0.58,3.45,inactive
KDM6B,no change,no change,-1.39,-0.66,inactive

A stretch from the list above, for reference:
Target gene,viability hit class,caspase hit class,viability robust z-score,caspase robust z-score,Outcome
ROBO2,no change,no change,0.22,1.66,inactive
ETNK1,no change,no change,0.9,0.3,inactive
